Experimental data taken from PMC3118807.

Amino acid sequences for entries named in this document (tags omitted). A change or cut given only in a name is not applied to a line headed by its entry.
UniProt P03230: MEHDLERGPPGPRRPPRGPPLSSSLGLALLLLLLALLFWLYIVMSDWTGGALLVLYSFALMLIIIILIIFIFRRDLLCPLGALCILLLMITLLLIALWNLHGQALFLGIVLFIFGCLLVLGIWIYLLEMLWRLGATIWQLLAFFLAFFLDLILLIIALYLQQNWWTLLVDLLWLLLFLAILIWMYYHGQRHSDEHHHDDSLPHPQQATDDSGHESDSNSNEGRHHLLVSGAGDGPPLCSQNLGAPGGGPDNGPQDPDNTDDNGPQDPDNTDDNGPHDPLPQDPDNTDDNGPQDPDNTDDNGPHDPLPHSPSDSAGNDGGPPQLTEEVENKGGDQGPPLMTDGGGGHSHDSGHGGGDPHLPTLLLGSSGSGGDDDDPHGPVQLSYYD
UniProt P41134: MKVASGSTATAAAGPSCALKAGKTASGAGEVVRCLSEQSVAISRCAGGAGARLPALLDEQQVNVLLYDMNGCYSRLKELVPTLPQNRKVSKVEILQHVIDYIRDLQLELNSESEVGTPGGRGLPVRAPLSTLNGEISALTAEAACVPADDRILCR

Biological target: HA-B95.8 LMP1 wild type (Epstein-Barr virus, B95.8 prototype) (UniProt P03230)
Assay: co-IP; HEK293 cells co-transfected with tagged LMP1 and tagged Id1; 400 µg of cell lysate incubated with primary antibody (anti-FLAG or anti-HA) for 2 hours, Protein A agarose for 1 hour, beads washed three times with lysis buffer; Western blot with anti-FLAG (M2) and anti-HA (12CA5)

With “FLAG-Id1-ΔC (from UniProt P41134) (domain or fragment)” the binding was “binds”.

No constants are given. Whether binding was seen depends on the method and setting. In cells and extracts the contact can be indirect. A result given as binding can be weak or reduced; the word gives no strength.
